Values quoted from earlier work in patent US20140066504A1, “ANALOGS AND PRODRUGS OF BUMETANIDE; COMPOSITIONS AND METHODS OF USE” (priority 2012, published 2014).

Tested on: rats

SMILES: NS(=O)(=O)c1cc(C(=O)O)c(NCc2ccco2)cc1Cl [furosemide]
- effect on kainic acid status: blocks kainic acid status
